For assay [1], the target named is T1, immobilized recombinant IL13Rα1 (UniProt P78552).
T1 sequence (looked up): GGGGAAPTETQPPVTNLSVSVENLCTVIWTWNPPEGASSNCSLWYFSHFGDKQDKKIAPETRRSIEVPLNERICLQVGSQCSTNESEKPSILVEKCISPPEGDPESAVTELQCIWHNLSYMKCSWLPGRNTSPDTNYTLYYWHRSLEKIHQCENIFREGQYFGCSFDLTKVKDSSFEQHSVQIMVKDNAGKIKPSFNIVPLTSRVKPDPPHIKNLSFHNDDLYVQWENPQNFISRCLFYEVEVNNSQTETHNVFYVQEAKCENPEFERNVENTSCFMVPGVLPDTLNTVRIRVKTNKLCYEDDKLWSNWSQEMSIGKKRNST
The assay can be described thus: yeast-displayed IL13; surface plasmon resonance with immobilized recombinant receptor, as the filing words it. (In general: SPR reads the build-up and loss of mass on a sensor chip optically.)

Sequences of proteins named here, by UniProt entry; tags and fusion partners are left off. A change or cut given only in a name is not applied to a line headed by its entry.
UniProt P35225: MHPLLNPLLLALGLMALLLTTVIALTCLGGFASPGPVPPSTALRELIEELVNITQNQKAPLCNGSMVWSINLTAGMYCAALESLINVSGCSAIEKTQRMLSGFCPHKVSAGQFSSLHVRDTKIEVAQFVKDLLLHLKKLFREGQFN

A further assay concerns the target T2, immobilized IL13Rα2 (UniProt Q14627).
T2 sequence (looked up): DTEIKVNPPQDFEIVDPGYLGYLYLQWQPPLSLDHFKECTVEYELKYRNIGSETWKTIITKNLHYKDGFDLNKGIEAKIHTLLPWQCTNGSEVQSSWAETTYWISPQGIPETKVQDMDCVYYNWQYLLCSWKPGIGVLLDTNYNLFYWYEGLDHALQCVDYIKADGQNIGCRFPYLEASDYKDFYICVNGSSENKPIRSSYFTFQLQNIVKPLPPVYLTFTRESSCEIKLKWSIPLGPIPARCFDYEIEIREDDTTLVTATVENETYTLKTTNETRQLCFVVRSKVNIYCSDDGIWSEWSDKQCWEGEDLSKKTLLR
The assay is described as above.

This is an account of results in patent publication US20230405119A1.

No constants are given. Whether binding was seen depends on the method and setting. Some entries that bind do so weakly or less than the wild type.

With “wild-type IL13 (from UniProt P35225 35-146) (ligand)”, the binding entry (in assay [1]; with immobilized IL13Rα2) was “binds” in each case.
